B1: mouse Twist1, wildtype (protein, UniProt P26687 1-206)
chain: MMQDVSSSPVSPADDSLSNSEEEPDRQQPASGKRGARKRRSSRRSAGGSAGPGGATGGGIGGGDEPGSPAQGKRGKKSAGGGGGGGAGGGGGGGGGSSSGGGSPQSYEELQTQRVMANVRERQRTQSLNEAFAALRKIIPTLPSDKLSKIQTLKLAARYIDFLYQVLQSDELDSKMASCSYVAHERLSYAFSVWRMEGAWSMSASH
B2: mouse Twist1-S192P (protein, UniProt P26687 1-206)
chain: MMQDVSSSPVSPADDSLSNSEEEPDRQQPASGKRGARKRRSSRRSAGGSAGPGGATGGGIGGGDEPGSPAQGKRGKKSAGGGGGGGAGGGGGGGGGSSSGGGSPQSYEELQTQRVMANVRERQRTQSLNEAFAALRKIIPTLPSDKLSKIQTLKLAARYIDFLYQVLQSDELDSKMASCSYVAHERLSYAFPVWRMEGAWSMSASH
B3: mouse Twist1-F191S (protein, UniProt P26687 1-206)
chain: MMQDVSSSPVSPADDSLSNSEEEPDRQQPASGKRGARKRRSSRRSAGGSAGPGGATGGGIGGGDEPGSPAQGKRGKKSAGGGGGGGAGGGGGGGGGSSSGGGSPQSYEELQTQRVMANVRERQRTQSLNEAFAALRKIIPTLPSDKLSKIQTLKLAARYIDFLYQVLQSDELDSKMASCSYVAHERLSYASSVWRMEGAWSMSASH
B4: mouse Twist1-A190T (protein, UniProt P26687 1-206)
chain: MMQDVSSSPVSPADDSLSNSEEEPDRQQPASGKRGARKRRSSRRSAGGSAGPGGATGGGIGGGDEPGSPAQGKRGKKSAGGGGGGGAGGGGGGGGGSSSGGGSPQSYEELQTQRVMANVRERQRTQSLNEAFAALRKIIPTLPSDKLSKIQTLKLAARYIDFLYQVLQSDELDSKMASCSYVAHERLSYTFSVWRMEGAWSMSASH

Chains of the proteins cited; added tags and fusions are not shown. Lines headed by an entry give the natural chain unless they say otherwise; changes in a name come on top.
UniProt P15806: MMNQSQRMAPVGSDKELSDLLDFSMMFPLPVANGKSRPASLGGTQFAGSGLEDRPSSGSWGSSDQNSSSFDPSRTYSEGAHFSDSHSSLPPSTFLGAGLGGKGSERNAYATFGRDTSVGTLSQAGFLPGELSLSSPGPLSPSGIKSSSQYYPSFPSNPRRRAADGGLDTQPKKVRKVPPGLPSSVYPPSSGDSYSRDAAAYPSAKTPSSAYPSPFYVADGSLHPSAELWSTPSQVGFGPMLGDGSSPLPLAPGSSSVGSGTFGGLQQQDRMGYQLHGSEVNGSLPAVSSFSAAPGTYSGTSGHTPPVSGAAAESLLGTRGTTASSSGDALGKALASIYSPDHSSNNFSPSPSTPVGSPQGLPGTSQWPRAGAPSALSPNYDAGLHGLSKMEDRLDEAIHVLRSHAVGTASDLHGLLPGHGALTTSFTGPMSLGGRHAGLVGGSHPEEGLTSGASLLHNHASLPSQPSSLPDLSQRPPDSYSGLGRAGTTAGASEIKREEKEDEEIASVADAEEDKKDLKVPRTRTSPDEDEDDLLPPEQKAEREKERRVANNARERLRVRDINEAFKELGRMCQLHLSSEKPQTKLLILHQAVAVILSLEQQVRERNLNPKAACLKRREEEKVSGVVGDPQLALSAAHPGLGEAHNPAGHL

Results are given in words; binding and its absence hold for the method and conditions named. Binding seen in cells or lysates may run through a third protein. Some binding calls cover weakened binding; strength is not graded here.

In this assay the target is mouse E2A (mouse) (UniProt P15806). Briefly: co-IP; HEK293T cells transfected with tagged E2A and wildtype or mutant Twist1; lysis buffer 20 mM Tris-HCl pH 7.5, 1 mM EDTA, 150 mM NaCl, 0.5% NP-40; supernatant incubated with M2 Magnetic Beads overnight; E2A as bait.
For B1, the binding result is given as “binds”.

B2: the binding result was “no binding”.

Regarding B3, the binding entry is listed as “binds”.

Turning to B4, the binding result is given as “binds”.

Values taken from publication PMC7016005 (2020).
